Some entries share one result that the patent states for a list of compounds.
Test: Pharmacokinetics after intra-tracheal dry powder dosing in the pig
Format: in vivo
Details: anaesthetised pigs, intra-tracheal 1 mg
Method: Serial blood samples were taken for up to 8 h following dosing.

CCC(=O)O[C@]1(C(=O)SCF)[C@H](C)C[C@H]2[C@@H]3C[C@H](F)C4=CC(=O)C=C[C@]4(C)[C@@]3(F)[C@@H](O)C[C@@]21C [Fluticasone propionate, 6α, 9α-Difluoro-17α-(1-oxopropoxy)-11β-hydroxy-16α-methyl-3-oxo-androsta-1,4-diene-17β-carbothioic acid S-fluoromethyl ester, reference compound]
time of maximum plasma concentration after dosing: ≤ 15 min

Source: patent US7498321B2, “17β-carbothioate 17α-arylcarbonyloxyloxy androstane derivative as anti-inflammatory agents” (Glaxo Group Limited, priority 2000, dated 2009)
